In PubChem BioAssay AID2284082 (EPA ToxCast):
This list was built around the results that the source calls inconclusive (neither active nor inactive); the mix of calls is not that of the screen. Where the call is inconclusive, the potency comes from a doubtful curve fit. Active and inactive are the calls of the source. Rule for the calls: active = hit-call score of the fitted dose curve at least 0.9, where 1 is the maximum; inconclusive = response in the unintended direction; inactive = score below 0.9.

Protein sequences, listed by entry. Tags and fused reporters are not part of them. Lines headed by an entry give the natural chain unless they say otherwise; changes in a name come on top.
UniProt P31751: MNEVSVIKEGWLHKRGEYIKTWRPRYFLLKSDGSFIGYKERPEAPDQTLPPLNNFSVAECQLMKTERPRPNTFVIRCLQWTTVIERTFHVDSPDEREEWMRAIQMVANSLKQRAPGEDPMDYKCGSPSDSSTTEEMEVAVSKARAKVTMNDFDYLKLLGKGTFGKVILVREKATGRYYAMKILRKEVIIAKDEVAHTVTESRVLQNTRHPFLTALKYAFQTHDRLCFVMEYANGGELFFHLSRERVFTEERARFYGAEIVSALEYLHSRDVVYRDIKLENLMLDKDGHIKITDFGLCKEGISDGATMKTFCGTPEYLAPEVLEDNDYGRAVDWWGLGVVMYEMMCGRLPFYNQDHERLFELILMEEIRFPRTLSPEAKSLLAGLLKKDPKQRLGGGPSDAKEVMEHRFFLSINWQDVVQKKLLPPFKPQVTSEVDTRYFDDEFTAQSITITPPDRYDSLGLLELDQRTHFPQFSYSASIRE

These molecules were tested against human Akt2 (PKBbeta) AGC Kinase, AKT2 (gene 208) (UniProt P31751) (assay: ERF_FR_ENZ_hAKT2: Eurofins (ERF) Enzymatic Radiometric [Km ATP] KinaseProfiler LeadHunter Assay for human Akt2 (PKBbeta) AGC Kinase).
Protocol: ERF_FR_ENZ_hAKT2 is a biochemical, single-readout assay that uses extracted gene-proteins in a cell-free assay. Measurements were taken 0.5 hour after chemical dosing in a 96-well plate. See Akt2 (PKBbeta) Human AGC Kinase Enzymatic LANCE Assay [Km ATP], Cerep.ERF_FR_ENZ_hAKT2 is an assay component calculated from the ERF_FR_ENZ_hAKT2 assay. It is designed to measure enzyme activity using a type of enzyme reporter as detected by fluorescence intensity with LANCE technology.Data from the assay component ERF_FR_ENZ_hAKT2 was analyzed at the assay endpoint, ERF_FR_ENZ_hAKT2, in the positive analysis fitting direction relative to DMSO as the negative control and baseline of activity. Using a type of enzyme reporter, loss-of-signal activity can be used to understand changes in enzymatic activity as they relate to gene AKT2. To generalize the intended target to other relatable targets, this assay endpoint is annotated to the kinase intended target family, where the subfamily is serine/threonine kinase.
PKBb (h) is incubated with 8 mM MOPS pH 7.0, 0.2 mM EDTA, 30 uM […], 10 mM MgAcetate and [g- 33P]-ATP (specific activity and concentration as required). The reaction is initiated by the addition of the Mg/ATP mix. After incubation for 40 minutes at room temperature, the reaction is stopped by the addition of phosphoric acid to a concentration of 0.5%. An aliquot of the reaction is then spotted onto a filter and washed four times for 4 minutes in 0.425% phosphoric acid and once in methanol prior to drying and scintillation counting.Compound should be supplied in 100% DMSO.We require a stock solution at a concentration of at least 50x higher than the Final Assay Concentration of your cpd. A 10mM stock is also acceptable. When ordering fewer than 60 kinase assays, we need 120uL of 50x concentrated stock. For more than 60 assays, we need 420uL of 50xcc stock. Please apply the conversion if you provide 10mM stock solution or compounds in powder form (pre-weighed is required) From 50 cpds supplied as solids,the TAT will be extended.

SMILES	AC50	outcome
O=C(/C=C/c1ccc(O)cc1)CC(=O)/C=C/c1ccc(O)cc1	inconclusive: 1250 nM	–
COc1cc(/C=C/C(=O)CC(=O)/C=C/c2ccc(O)c(OC)c2)ccc1O	inconclusive: 163 nM	–
Oc1ccc(O)cc1	–	inactive
